Assay: Persistence of organic peroxy compound along rising main

For CC(=O)OO [Peracetic Acid, peroxyacetic acid], the “extent of rising main along which compound persists above the limit of detectability” value was about 5 km and the “distance from dosing location within which compound falls below the limits of detectability” value (high levels of reactive organic substrates (reactive COD)) was “within only a kilometre”.
